Percent effect of library compounds

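Assay of Toxoplasma gondii numbers, read through their beta-galactosidase reporter with a colour substrate. Concentration: 50 µM. Higher reads as fewer parasites (inferred from which compounds were picked for retests). Size under these conditions: about 18,000 compounds, about 170 of them at 50% or above in at least one test.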

Results are given as percent effect.
The controls that fix the scale are not given in the record; negative values are as filed.
Compounds were drawn at random from those tested, without regard to their results.

{"smiles": "O=C(Cn1cnnn1)Nc1ccc(SC(F)F)cc1", "Percent Effect": -26.2}
{"smiles": "NCC(=O)N(Cc1cccs1)Cc1cccs1", "Percent Effect": -7.146}
{"smiles": "CC(=O)c1ccc(O)cc1F", "Percent Effect": 6.277}
{"smiles": "CC(C)NC(=O)CN1CC(Oc2ccccc2)C1", "Percent Effect": -5.654}
{"smiles": "CN1CCC(NC(=O)NCCc2ccc(Br)s2)C1=O", "stereo": "centres undefined", "Percent Effect": -2.489}
{"smiles": "CC(=O)Cn1nc(C)c(Br)c1C", "Percent Effect": -2.261}
{"smiles": "CC(C)NC(=O)Cn1c(S(C)(=O)=O)nc2ccccc21", "Percent Effect": -1.468}
{"smiles": "Cc1cc(Br)oc1C(=O)N1CCOC(C)C1", "stereo": "centres undefined", "Percent Effect": 0.5106}
{"smiles": "CC(=O)Nc1ccc(S(=O)(=O)n2cccn2)cc1", "Percent Effect": -21.73}
{"smiles": "CN1CCN(CC(=O)NCC2CCCS2)CC1=O", "stereo": "centres undefined", "Percent Effect": -1.809}
{"smiles": "C[C@@H](CO)NC(=O)NCC1CCN(CC(F)(F)F)CC1", "Percent Effect": -3.478}
{"smiles": "COc1ccc(CN)nc1", "Percent Effect": 5.444}
{"smiles": "NS(=O)(=O)c1ccc(OCC2CCNC2)cc1", "stereo": "centres undefined", "Percent Effect": -15.77}
{"smiles": "CC(NS(C)(=O)=O)C(=O)NCCCc1ccncc1", "stereo": "centres undefined", "Percent Effect": 0.4518}
{"smiles": "C=C(C)CN1CCN(C(=O)COC)CC1", "Percent Effect": -3.007}
{"smiles": "OCCCN1CCN(c2nccc3occc23)CC1", "Percent Effect": 1.255}
{"smiles": "O=C(Cn1ccc(=O)[nH]c1=O)Nc1cccnc1", "Percent Effect": 5.225}
{"smiles": "Cc1noc(C)c1C(=O)N1CCOc2ccccc21", "Percent Effect": 4.439}
{"smiles": "Cn1ncc2c(NCCc3cccnc3)ncnc21", "Percent Effect": -3.294}
{"smiles": "COCCCNC(=O)c1coc(Br)c1", "Percent Effect": -6.543}
{"smiles": "O=C(CSc1ccncc1)N1CCCC2(CCOC2)C1", "stereo": "centres undefined", "Percent Effect": -0.617}
{"smiles": "Nc1nccnc1C(=O)N1CCCC(C(F)(F)F)C1", "stereo": "centres undefined", "Percent Effect": -2.37}
{"smiles": "COc1ccc(NC(=O)NCCN2CCOCC2)cn1", "Percent Effect": 5.904}
{"smiles": "Cc1ccc2cccc(OCC(C)CS(C)(=O)=O)c2n1", "stereo": "centres undefined", "Percent Effect": -3.362}
{"smiles": "O=S(=O)(CCN1CC[C@@H](O)C1)c1cccc(Br)c1", "Percent Effect": 37.35}
{"smiles": "CC1CCN(C(=O)CNS(=O)(=O)c2ccccc2)CC1", "Percent Effect": -25.27}
{"smiles": "Cc1cccc(C(=O)Nc2cc[nH]n2)c1F", "Percent Effect": 4.426}
{"smiles": "NC(=O)C1CCN(CCCOc2ccccc2)CC1", "Percent Effect": -12.83}
{"smiles": "CN(Cc1ccccn1)C(CCO)c1ccccc1", "stereo": "centres undefined", "Percent Effect": 3.625}
{"smiles": "Cc1ccc(CC(=O)N2CCNCC2)cc1", "Percent Effect": -12.92}
{"smiles": "CC(=O)c1ccc2c(c1)n(C)c(=O)n2C", "Percent Effect": -6.655}
{"smiles": "CSC(C)C(=O)NCCNC(=O)C(C)C", "stereo": "centres undefined", "Percent Effect": -8.909}
{"smiles": "CCn1ccc(NC(=O)C2CCCC2)n1", "Percent Effect": -29.64}
{"smiles": "CN(C)C(=O)CCN1CCC(CNc2ccccn2)C1", "stereo": "centres undefined", "Percent Effect": 1.99}
{"smiles": "CCSCCOc1ccc(CO)nc1", "Percent Effect": 0.7421}
{"smiles": "O=C(C1CCC1)N1CCN(S(=O)(=O)c2cccs2)CC1", "Percent Effect": 0.2028}
{"smiles": "CCN(CC)CCNC(=O)Nc1nnc2ccccn12", "Percent Effect": 27.21}
{"smiles": "NCCS(=O)(=O)NCc1ccc(F)cc1", "Percent Effect": 8.72}
{"smiles": "COc1cc(CCNC(=O)[C@H]2CCC(=O)N2)ccc1C", "Percent Effect": 8.358}
{"smiles": "CNCCOc1ccccc1C#N", "Percent Effect": -6.86}
{"smiles": "CCN1CC(=O)NC1c1cccc(C#N)c1", "stereo": "centres undefined", "Percent Effect": 18.82}
{"smiles": "CCC(CO)NC(=O)c1cc(N(C)C)ccn1", "stereo": "centres undefined", "Percent Effect": 19.93}
{"smiles": "CCCS(=O)(=O)N1CCC(CC(=O)NC)CC1", "Percent Effect": -1.732}
{"smiles": "c1ccc(C[C@H]2COCCN2)cc1", "Percent Effect": -11.87}
{"smiles": "CCc1ccc(CN2CCOCC(CO)C2)nc1", "stereo": "centres undefined", "Percent Effect": 13.26}
{"smiles": "CC(NC(=O)c1ccncc1)c1ccncc1", "stereo": "centres undefined", "Percent Effect": -0.6432}
{"smiles": "CSc1ccc(CC(=O)NCCN2CCCC2=O)cc1", "Percent Effect": -13.17}
{"smiles": "CNC(=O)NC(=O)CSc1nnc(-c2ccccc2)o1", "Percent Effect": 5.56}
{"smiles": "CN(C(=O)CSc1nnc2ccccn12)C1=CCCC1", "Percent Effect": -9.422}
{"smiles": "CN1CCCN(S(=O)(=O)c2ccc(Br)cn2)CC1", "Percent Effect": 1.577}
{"smiles": "CN(CCc1ccc(Br)cc1)C(=O)CCCN", "Percent Effect": -0.5536}

3 of the entries, repeated:

SMILES	Percent Effect
O=C(Cn1cnnn1)Nc1ccc(SC(F)F)cc1	-26.2
COc1ccc(NC(=O)NCCN2CCOCC2)cn1	5.904
CC(=O)c1ccc2c(c1)n(C)c(=O)n2C	-6.655

Source: ChEMBL document CHEMBL3988442, “University of Dundee, Small-Polar-MMV Screening Library” (2021).